Source: patent publication US10766798
These are yes or no findings as the source states them, for the method shown. Some entries that bind do so weakly or less than the wild type.

Protein sequences, listed by entry. Tags and fused reporters are not part of them.
UniProt P0A1P6: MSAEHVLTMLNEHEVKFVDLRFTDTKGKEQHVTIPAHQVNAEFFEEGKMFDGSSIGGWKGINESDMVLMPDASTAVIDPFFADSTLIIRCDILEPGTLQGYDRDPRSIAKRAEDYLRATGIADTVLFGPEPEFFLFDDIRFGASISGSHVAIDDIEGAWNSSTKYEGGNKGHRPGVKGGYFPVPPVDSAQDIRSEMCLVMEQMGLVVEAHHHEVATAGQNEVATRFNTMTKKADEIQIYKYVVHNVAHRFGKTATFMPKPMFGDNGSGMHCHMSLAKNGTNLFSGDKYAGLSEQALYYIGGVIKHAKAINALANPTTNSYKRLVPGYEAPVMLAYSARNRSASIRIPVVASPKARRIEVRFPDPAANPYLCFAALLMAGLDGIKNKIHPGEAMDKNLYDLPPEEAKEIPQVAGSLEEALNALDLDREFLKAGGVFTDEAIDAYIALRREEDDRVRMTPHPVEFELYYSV

Biological target: glutamine synthetase displayed on the yeast surface (UniProt P0A1P6)
Assay: purified GS added at 100 uM to medium with yeast displaying GS, in the presence of divalent metal; aggregation seen by eye and by SEM

glutamine synthetase, overexpressed and purified from BL21 bacteria cells (from UniProt P0A1P6 1-469) (enzyme)
binding: binds
